For some of these results: Weaker means in comparison with the reference protein, sequence or condition of that experiment. For some of these results: The exact form of at least one protein or probe is not confirmed.

Data set [1] has as its target MBP-Loc1p (Saccharomyces cerevisiae) (UniProt P43586). Description: EMSA (in-gel FRET). The following applies: EMSA: 20 mM HEPES pH 7.8, 200 mM NaCl, 2 mM MgCl2, 2 mM DTT, 4% glycerol, 25 C, 5 nM RNA, 100 ug/ml tRNA (omitted in competition), recombinant protein, residues 1-204, protein details: MBP, label: 5' Cy3 / 5' Cy5. On the technique in general: A gel shift assay detects complexes by their altered migration in electrophoresis.

Data set [2] has as its target Loc1p (118-131) (Saccharomyces cerevisiae) (UniProt P43586). Description: NMR (1D imino titration). The following applies: no shift at 10-fold excess, shifts only at 15-22-fold; NMR: 20 mM Na phosphate pH 7.4, 50 mM NaCl, 278 K; residues 118-131.
Data set [3] addresses Loc1p (22-35) (Saccharomyces cerevisiae) (UniProt P43586). Description: NMR (1D imino titration). Conditions: no shift at 10-fold excess, shifts only at 15-22-fold; NMR: 20 mM Na phosphate pH 7.4, 50 mM NaCl, 278 K; residues 22-35.

In the case of “AAAAAAAAAAAAAAAAAA / UUUUUUUUUUUUUUUUUU [A18/U18 dsRNA]”, the binding result in data set [1] is given as “binds”.
Regarding “AAAAAAAAAAAAAAAAAAAAA / UUUUUUUUUUUUUUUUUU [A21 DNA/U18 RNA hybrid]”, the binding result in data set [1] (DNA:RNA hybrid) is “binds”.
Take “UCUCUGGUUAGGAAACUAACUAGGGA [dsRNA tetraloop]”: the binding result in data set [2] and in data set [3] was “binds more weakly” throughout.

For the origin of these results see publication PMC11662656.
